The labels stand for the following.
T1: triple HA-tagged uL5c (chloroplast ribosomal protein uL5c) (Chlamydomonas reinhardtii) (UniProt Q8HTL1)
T1 sequence: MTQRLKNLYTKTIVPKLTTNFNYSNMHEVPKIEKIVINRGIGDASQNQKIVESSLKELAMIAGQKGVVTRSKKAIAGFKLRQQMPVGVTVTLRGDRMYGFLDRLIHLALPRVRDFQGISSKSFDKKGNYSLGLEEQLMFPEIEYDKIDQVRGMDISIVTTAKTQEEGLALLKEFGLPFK

B1: YCF3 (protein, UniProt O20031 1-172)
chain: MPRTQRNDNFIDKTFTVVADILLKVLPTSQREKQAFSYYRNGMSAQAEGEYAEALQNYYEAMRLEVDAYDRSYILYNIGLIHTSNGEHGRALEYYYQALERNPSLSSALNNIAVIYHYRGEQAIENGQSEISQILFEKAADYWKEAIRLAPTNYIEALNWLKMTGRLTGLAT
B2: CHLB (protein, UniProt P36437 1-687)
chain: MKLAYWMYAGPAHIGVLRVSSSFKNVHAIMHAPLGDDYFNVMRSMLERERDFTPVTASIVDRHVLARGSQEKVVENITRKNKEETPDLILLTPTCTSSILQEDLHNFVESALAKPVQIDEHADHKVTQQSALSSVSPLLPLEENTLIVSELDKKLSPSSKLHINMPNICIPEGEGEGEQTKNSIFVKSATLTNLSEEELLNQEHHTKTRNHSDVILADVNHYRVNELQAADRTLEQIVRYYISQAQKQNCLNITKTAKPSVNIIGIFTLGFHNQHDCRELKRLFNDLGIQINEIIPEGGNVHNLKKLPQAWFNFVPYREIGLMTAMYLKSEFNMPYVAITPMGLIDTAACIRSICKIITTQLLNQTATVQEPSKFIYPKATSLEQTNILETSQKETILKDNPDSGNTLSTTVEEIETLFNKYIDQQTRFVSQAAWFSRSIDCQNLTGKKAVVFGDATHSAAMTKLLAREMGIKVSCAGTYCKHDADWFREQVSGFCDQVLITDDHTQVGDMIAQLEPAAIFGTQMERHVGKRLDIPCGVISAPVHIQNFPLGYRPFLGYEGTNQIADLVYNSFNLGMEDHLLQIFGGHDSENNSSIATHLNTNNAINLAPGYLPEGEGSSRTSNVVSTISSEKKAIVWSPEGLAELNKVPGFVRGKVKRNTEKYALQKNCSMITVEVMYAAKEALSA
B3: PSAK (protein, UniProt P14225 27-113)
chain: DGFIGSSTNLIMVASTTATLAAARFGLAPTVKKNTTAGLKLVDSKNSAGVISNDPAGFTIVDVLAMGAAGHGLGVGIVLGLKGIGAL
B4: CHLN (protein, UniProt P29683 1-545)
chain: MKPLKLKRLIMENNKSHATNLSLGGPFQGNCMPINQYFSKNQPNRGSSSSEKRSSLLPLWESKNAADGFSIVSHNVLLDGATTILNLNSFFECETGNYHTFCPISCVAWLYQKIEDSFFLVIGTKTCGYFLQNALGVMIFAEPRYAMAELEESDISAQLNDYKELKRLCLQIKQDRNPSVIVWIGTCTTEIIKMDLEGMAPRLETEIGIPIVVARANGLDYAFTQGEDTVLSAMALASLKKDVPFLVGNTGLTNNQLLLEKSTSSVNGTDGKELLKKSLVLFGSVPSTVTTQLTLELKKEGINVSGWLPSANYKDLPTFNKDTLVCGINPFLSRTATTLMRRSKCTLICAPFPIGPDGTRVWIEKICGAFGINPSLNPITGNTNLYDREQKIFNGLEDYLKLLRGKSVFFMGDNLLEISLARFLTRCGMIVYEIGIPYLDKRFQAAELALLEQTCKEMNVPMPRIVEKPDNYYQIRRIRELKPDLTITGMAHANPLEARGITTKWSVEFTFAQIHGFTNTREILELVTQPLRRNLMSNQSVNAIS
B5: PSAG (protein, UniProt P14224 31-126)
chain: ALDPQIVISGSTAAFLAIGRFVFLGYQRREANFDSTVGPKTTGATYFDDLQKNSTIFATNDPAGFNIIDVAGWGALGHAVGFAVLAINSLQGANLS

These are yes or no findings as the source states them, for the method shown. Binding seen in cells or lysates may run through a third protein. A yes stands for co-enrichment or nearness to the bait. Other partners may have been found. For part of these data: A no says only that the protein was not detected with the bait. Tags and fused reporters may be left off the sequences shown.

The first experiment deals with T1, triple HA-tagged uL5c (chloroplast ribosomal protein uL5c) (Chlamydomonas reinhardtii). Nature of the experiment: affinity purification with mass spectrometry; as a1, the control condition alone: cells kept at 25°C, no heat.
For B1, the binding entry was “no binding (only control conditions (25°C, no heat))”.

The next experiment shares this target. Nature of the experiment: affinity purification with mass spectrometry; triple-HA-tagged uL5c (chloroplast ribosomes) as bait; cells cross-linked in vivo with 0.37% formaldehyde for 10 min; cells at 25°C (control) or 15 min / 180 min at 40°C; enrichment over untagged control (one-sided t-test, FDR < 0.05, S0 = 1) in at least one condition.
Take B1: the binding entry was “binds”. In the case of B2, the binding entry is recorded as “binds”. On the same count and under the same terms, to B3 belongs “binds”. Still for that read-out and setting: to B4 belongs “binds”; to B5, “binds”.

These data come from publication PMC8894945.
